# PubChem BioAssay AID1259277 – Sanger Institute | 2017
# Purpose: 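Follow-up of kinome hits for drug and siRNA synthetic lethality in colorectal cancer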 (follow-up of hits)
# Cell system: LS123 human colorectal cancer cells
# Knock-down reagent: single siRNA against human genes
# Conditions: anchor drug BYL719 at 1 µM, cetuximab at 5 µg/ml or trametinib at 10 nM, or DMSO vehicle only, given one day after siRNA delivery
# Measured: 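Replicate mean of viability versus control pool 2 (non-targeting), and a synergy score comparing joint viability with separate effects of anchor drug and siRNA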
# Reading the numbers: synergy score with trametinib: higher = stronger synergistic killing with trametinib; synergy score with BYL719: higher = stronger synergistic killing with BYL719; synergy score with cetuximab: higher = stronger synergistic killing with cetuximab; viability with siRNA plus trametinib: higher = more cells survive the combination; viability, siRNA with vehicle only: higher = more cells survive the knock-down
# Hit rule: 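Active if synergy exceeds 0.10 for any of the three drug combinations, otherwise inactive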
# Meaning of the calls: active = synergy with at least one anchor drug; inactive = no synergy with any anchor drug
# This is a random part of 160 reagents tested. 48 of them (30%) count as active. 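Calls refer to individual siRNAs; confirming a gene required at least two siRNAs in multiple cell lines.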 Reagents against one gene are numbered here. No viability above 1 is reported: the scale is capped. Not given: the amount of reagent, the time to read-out.
Gene,reagent no.,synergy score with trametinib,synergy score with BYL719,synergy score with cetuximab,viability with siRNA plus trametinib,"viability, siRNA with vehicle only",Call
MPP3 (GeneID 4356),1,0.079,-0.165,-0.118,0.694,1,inactive
MPP3 (GeneID 4356),2,0.0682,-0.0406,-0.0736,0.63,0.904,inactive
MPP3 (GeneID 4356),3,0.316,0.159,-0.0232,0.296,0.792,active
MPP3 (GeneID 4356),4,0.202,0.0565,0.136,0.454,0.85,active
PINK1 (GeneID 65018),1,0.0908,-0.131,-0.208,0.545,0.823,inactive
PINK1 (GeneID 65018),2,0.21,0.0659,-0.0418,0.563,1,active
PINK1 (GeneID 65018),3,0.0216,-0.199,-0.0883,0.496,0.67,inactive
PINK1 (GeneID 65018),4,0.203,0.0435,0.00927,0.53,0.948,active
COASY (GeneID 80347),1,-0.142,-0.391,-0.329,0.62,0.619,inactive
COASY (GeneID 80347),2,-0.169,-0.0684,-0.207,0.864,0.899,inactive
COASY (GeneID 80347),3,-0.105,-0.112,-0.178,0.608,0.651,inactive
COASY (GeneID 80347),4,-0.113,-0.0931,-0.111,0.564,0.582,inactive
RPS6KA4 (GeneID 8986),1,0.0998,-0.262,-0.0431,0.469,0.735,inactive
RPS6KA4 (GeneID 8986),2,-0.0301,-0.0254,-0.0598,0.658,0.812,inactive
RPS6KA4 (GeneID 8986),3,0.175,-0.000993,0.0734,0.312,0.631,active
RPS6KA4 (GeneID 8986),4,0.0226,-0.155,0.0535,0.624,0.837,inactive
IKBKB (GeneID 3551),1,-0.0928,-0.146,-0.155,0.583,0.635,inactive
IKBKB (GeneID 3551),2,-0.0699,-0.267,-0.142,0.67,0.776,inactive
IKBKB (GeneID 3551),3,-0.144,-0.289,-0.278,0.777,0.819,inactive
IKBKB (GeneID 3551),4,-0.0927,-0.288,-0.357,0.619,0.681,inactive
PFKFB3 (GeneID 5209),1,-0.0717,-0.104,-0.0141,0.644,0.741,inactive
PFKFB3 (GeneID 5209),2,0.144,-0.156,0.139,0.592,0.952,active
PFKFB3 (GeneID 5209),3,-0.104,-0.172,-0.125,0.753,0.84,inactive
PFKFB3 (GeneID 5209),4,0.107,-0.161,-0.0632,0.609,0.926,active
STK36 (GeneID 27148),1,0.0651,-0.0957,-0.209,0.499,0.729,inactive
STK36 (GeneID 27148),2,0.103,-0.203,-0.288,0.521,0.807,active
STK36 (GeneID 27148),3,0.0692,-0.183,-0.119,0.568,0.824,inactive
STK36 (GeneID 27148),4,-0.221,-0.232,-0.247,0.775,0.716,inactive
CSNK2A2 (GeneID 1459),1,0.0787,-0.112,-0.214,0.61,0.891,inactive
CSNK2A2 (GeneID 1459),2,0.0517,-0.119,-0.0489,0.414,0.603,inactive
CSNK2A2 (GeneID 1459),3,0.122,-0.0469,-0.0464,0.439,0.725,active
CSNK2A2 (GeneID 1459),4,0.00872,-0.264,-0.0741,0.508,0.669,inactive
CDK6 (GeneID 1021),1,-0.0491,-0.0961,-0.118,0.822,1,inactive
CDK6 (GeneID 1021),2,-0.0133,-0.228,-0.143,0.409,0.512,inactive
CDK6 (GeneID 1021),3,0.0413,-0.165,-0.0785,0.732,1,inactive
CDK6 (GeneID 1021),4,0.0601,-0.0668,-0.00708,0.696,0.979,inactive
MAPK4 (GeneID 5596),1,-0.128,-0.251,-0.206,0.748,0.802,inactive
MAPK4 (GeneID 5596),2,-0.0994,-0.174,-0.0951,0.611,0.662,inactive
MAPK4 (GeneID 5596),3,0.0583,-0.0826,0.0707,0.713,0.998,inactive
MAPK4 (GeneID 5596),4,0.0471,-0.0537,-0.0528,0.55,0.773,inactive
EPHA6 (GeneID 285220),1,0.0572,-0.119,-0.164,0.552,0.788,inactive
EPHA6 (GeneID 285220),2,-0.0153,-0.137,-0.124,0.464,0.58,inactive
EPHA6 (GeneID 285220),3,-0.00541,-0.138,-0.0649,0.596,0.764,inactive
EPHA6 (GeneID 285220),4,-0.0199,-0.183,-0.173,0.607,0.759,inactive
CRIM1 (GeneID 51232),1,0.107,-0.134,-0.0375,0.659,0.991,active
CRIM1 (GeneID 51232),2,-0.02,-0.299,-0.0928,0.643,0.806,inactive
CRIM1 (GeneID 51232),3,0.0427,-0.0685,-0.11,0.653,0.899,inactive
CRIM1 (GeneID 51232),4,-0.0778,-0.25,-0.151,0.592,0.665,inactive
PAK1 (GeneID 5058),1,0.328,-0.198,-0.0556,0.374,0.908,active
PAK1 (GeneID 5058),2,0.103,-0.0799,-0.0556,0.35,0.587,active
PAK1 (GeneID 5058),3,0.0308,0.0313,-0.00702,0.616,0.837,inactive
PAK1 (GeneID 5058),4,0.166,-0.12,-0.028,0.465,0.815,active
MAP3K8 (GeneID 1326),1,-0.195,-0.244,-0.118,0.968,1,inactive
MAP3K8 (GeneID 1326),2,0.0656,-0.0569,-0.00979,0.575,0.828,inactive
MAP3K8 (GeneID 1326),3,0.0639,0.0179,-0.158,0.441,0.654,inactive
MAP3K8 (GeneID 1326),4,-0.00156,-0.159,-0.152,0.673,0.869,inactive
PIM1 (GeneID 5292),1,0.00124,-0.13,-0.038,0.574,0.745,inactive
PIM1 (GeneID 5292),2,-0.207,-0.0807,-0.291,0.768,0.726,inactive
PIM1 (GeneID 5292),3,-0.18,-0.207,-0.13,0.878,0.903,inactive
PIM1 (GeneID 5292),4,0.0757,-0.0832,0.0398,0.538,0.794,inactive
KCNH8 (GeneID 131096),1,0.182,-0.199,-0.0953,0.374,0.719,active
KCNH8 (GeneID 131096),2,0.0635,-0.2,-0.0514,0.484,0.708,inactive
KCNH8 (GeneID 131096),3,0.154,-0.205,-0.108,0.619,1,active
KCNH8 (GeneID 131096),4,0.159,0.0147,0.148,0.459,0.799,active
